Experimental findings from US20160090422A1 (Genentech, published 2016) are described below.

These are yes or no findings as the source states them, for the method shown. Some results given as binding are weak or reduced against the parent protein; the word gives no strength.

Test [1] deals with T1, human CRTh2 (human, UniProt Q9Y5Y4 1-395).
T1 construct: also native CRTh2 on primary human basophils, eosinophils and Th2 cells; also called hCRTh2; chemoattractant receptor-homologous molecule expressed on T helper 2 cells
T1 sequence: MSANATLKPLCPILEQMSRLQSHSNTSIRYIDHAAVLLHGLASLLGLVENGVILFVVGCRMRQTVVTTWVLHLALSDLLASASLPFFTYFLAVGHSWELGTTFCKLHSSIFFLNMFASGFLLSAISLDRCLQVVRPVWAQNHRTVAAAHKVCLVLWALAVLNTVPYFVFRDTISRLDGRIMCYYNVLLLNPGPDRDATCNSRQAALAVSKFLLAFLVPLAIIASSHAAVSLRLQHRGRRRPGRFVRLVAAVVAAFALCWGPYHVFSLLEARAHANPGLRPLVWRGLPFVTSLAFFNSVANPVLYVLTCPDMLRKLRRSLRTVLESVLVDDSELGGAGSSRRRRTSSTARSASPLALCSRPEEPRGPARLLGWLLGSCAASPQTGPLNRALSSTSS
As to the kind of experiment: flow cytometry on basophils and eosinophils of human PBMC; antibody at 5 and 0.5 ug/ml, labelled anti-mouse IgG [Cont.]. A general note: In flow cytometry, cells or beads pass a laser one at a time.

Test [2] addresses T1, human CRTh2. Put plainly: flow cytometry on 293 cells overexpressing human CRTh2.
Test [3] concerns the target T1, human CRTh2. As to the kind of experiment: flow cytometry, 293 cells expressing human CRTh2; hybridoma antibody at 20, 2 and 0.2 ug/ml [Cont.].
Test [4] has as its target T1, human CRTh2. As to the kind of experiment: flow cytometry on primary human basophils and eosinophils.
Test [5] has as its target T2, rhesus monkey CRTh2 (rhesus monkey).
T2 sequence: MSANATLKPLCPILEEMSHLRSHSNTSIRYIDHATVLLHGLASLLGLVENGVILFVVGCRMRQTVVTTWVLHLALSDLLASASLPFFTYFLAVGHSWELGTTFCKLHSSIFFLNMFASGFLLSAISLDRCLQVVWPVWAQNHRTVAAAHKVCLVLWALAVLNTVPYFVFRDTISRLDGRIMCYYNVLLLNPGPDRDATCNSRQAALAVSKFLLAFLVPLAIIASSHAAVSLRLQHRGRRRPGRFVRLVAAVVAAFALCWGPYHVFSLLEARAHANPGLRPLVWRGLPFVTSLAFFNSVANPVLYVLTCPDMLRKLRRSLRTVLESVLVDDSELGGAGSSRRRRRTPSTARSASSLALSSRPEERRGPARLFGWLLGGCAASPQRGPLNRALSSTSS
As to the kind of experiment: flow cytometry, 293 cells expressing rhesus CRTh2.

The target is the same in test [6]. As to the kind of experiment: flow cytometry, 300.19 cells expressing amino-terminal Flag-tagged rhesus CRTh2; antibody at 5 and 0.5 ug/ml.
Test [7] shares this target. Put plainly: condition: 20 ug/ml (highest concentration, FIG. 3A legend); flow cytometry on 293 or 300.19 cells overexpressing rhesus CRTh2.
For test [8], the target named is T3, cynomolgus monkey CRTh2 (cynomolgus monkey).
T3 sequence: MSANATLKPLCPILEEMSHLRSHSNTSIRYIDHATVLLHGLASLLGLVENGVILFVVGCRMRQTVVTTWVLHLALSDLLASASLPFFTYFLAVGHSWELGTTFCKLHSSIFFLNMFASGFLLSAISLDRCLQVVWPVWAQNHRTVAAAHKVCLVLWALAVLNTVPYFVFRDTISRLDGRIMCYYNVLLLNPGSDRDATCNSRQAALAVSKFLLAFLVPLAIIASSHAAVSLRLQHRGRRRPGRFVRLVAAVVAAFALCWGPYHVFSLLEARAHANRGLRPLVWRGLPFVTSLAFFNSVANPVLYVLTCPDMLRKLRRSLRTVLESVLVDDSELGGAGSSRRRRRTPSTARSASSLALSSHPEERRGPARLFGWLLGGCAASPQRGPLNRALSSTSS
As to the kind of experiment: condition: 20 ug/ml (highest concentration, FIG. 3A legend); flow cytometry on 293 or 300.19 cells overexpressing cyno CRTh2.

For test [9] the target is unchanged. As to the kind of experiment: flow cytometry, 293 cells expressing cynomolgus CRTh2 [Cont.].
The target is the same in test [10]. As to the kind of experiment: flow cytometry, 300.19 cells expressing amino-terminal Flag-tagged cynomolgus CRTh2 [Cont.].
For test [11], the target named is T2, rhesus monkey CRTh2 (rhesus monkey). As to the kind of experiment: condition: 0.55 ug/ml (highest concentration, FIG. 15B legend); flow cytometry on 293 cells expressing rhesus CRTh2.
The target is the same in test [12]. Put plainly: flow cytometry, 293 cells expressing rhesus CRTh2; antibody at 0.55, 0.18, 0.06, 0.02 and 0.006 ug/ml [Cont.].
Test [13] has the same target. Put plainly: condition: 10 ug/ml (highest concentration, FIG. 3D-F legend); flow cytometry on 293 / 300.19 cells overexpressing rhesus CRTh2 and on primary rhesus basophils.

B1: murine anti-CRTh2 antibody 31A5 (antibody, mouse IgG2a, V domains shown)
VH: QVQLKESGPGLVAPSQSLSITCTVSGFSLTGYGVNWVRQPPGKGLEWLGMIWDDGTTDFDSALRSRLSISKDNSKSQVFLKMNSLQTDDTARYFCARGDYGYAMDYWGQGTSVTVSS
VL: DIQMTQSPASLSVSVGETVTITCRASVNIYSNLAWYQQRQGKSPQLLVYAATNLAEGVPSRFSGSGSGTQYSLKINSLQSEDFGSYYCQHFWVTPYTFGGGTKLEIK
notes: Mouse monoclonal (hybridoma antibody; heavy chain also recloned with mouse IgG2a Fc); also called mu31A5
In the case of B1, the binding result in test [1], in test [2], in test [3] and in [4] was “binds” each time.

B2: murine anti-CRTh2 antibody 19A2 (antibody, V domains shown)
VH: EVKLVESGGGLVQPGGSLKLSCAASGFTFSSYSMSWVRQTPEKRLEWVAYISNGGSTTYYPGTVEGRFTISRDNAKNTLFLQMSSLRSKDTAMYYCARHRTNWDFDYWGQGTTLTVSS
VL: DIQMTQSPASLSVSVGETVTITCRASENIYSNLAWYQQKQGKSPQLVVYAATQLADGVPSRFSGSGSGTQYSLKINSLQSEDFGSYYCQHFWITPWTFGGGTKLEIK
notes: whole IgG in the Scatchard assay; also called mu19A2; Mab 19A2
For the molecule B2, the binding entry was “no binding (tested: 20 ug/ml)” in test [5], “no binding (tested: 5 ug/ml)” in test [6] and “no binding” in [7].

B3: murine anti-CRTh2 antibody 8B1 (antibody, V domains shown)
VH: QVQLQQSGTGLVRPGTSVRVSCKASGYAFITYLIEWIKQRPGQGLEWIGVIHPGSGNSHYNEKFKGKATLTADTSSSTAYMQLSSLTSGDSAVYFCARSGSSSFDYYAMDFWGQGTSVTVSS
VL: DIQMTQSPSSLSASLGERVSLTCRASQEISGYFSWLQQKPDGTIKRLIYAASTLDSGVPKRFSGSRSGSDYSLTISSLESEDFADYYCLQYANYPYTFGGGTKLEIK
notes: Mouse monoclonal, hybridoma antibody or recloned with mouse IgG2a Fc; whole IgG in the Scatchard assay; also called mu8B1; Mab 8B1
Regarding B3, the binding entry in test [8] is “no binding”; in test [9], “no binding (tested: 20 ug/ml)”; in [5] it was “no binding (tested: 20 ug/ml)”; in test [6], “no binding (tested: 5 ug/ml)”; in test [10], “no binding (tested: 1 ug/ml)”; in [7], “no binding”.

B4: humanized anti-CRTh2 antibody hu19A2.v1 (antibody, human IgG1, kappa, V domains shown)
VH: EVQLVESGGGLVQPGGSLRLSCAASGFTFSSYSMSWVRQAPGKGLEWVAYISNGGSTTYYPGTVEGRFTISRDNSKNTLYLQMNSLRAEDTAVYYCARHRTNWDFDYWGQGTLVTVSS
VL: DIQMTQSPSSLSASVGDRVTITCRASENIYSNLAWYQQKPGKAPKLVVYAATQLADGVPSRFSGSGSGTDYTLTISSLQPEDFATYYCQHFWITPWTFGQGTKVEIKR
notes: also called h19A2.v1
Regarding B4, the binding result in test [11] was “no binding”; in [12], “no binding (tested: 0.55 ug/ml)”; in test [13] it was “no binding”.
